The record followed here is the supplement of paper PMC12819154, “High-throughput peptide-centric local stability assay extends protein–ligand identification to membrane proteins, tissues and bacteria” (Nature Structural & Molecular Biology, 2025).

Protein sequences, listed by entry. Tags and fused reporters are not part of them. Lines headed by an entry give the natural chain unless they say otherwise; changes in a name come on top.
UniProt Q7TSI0: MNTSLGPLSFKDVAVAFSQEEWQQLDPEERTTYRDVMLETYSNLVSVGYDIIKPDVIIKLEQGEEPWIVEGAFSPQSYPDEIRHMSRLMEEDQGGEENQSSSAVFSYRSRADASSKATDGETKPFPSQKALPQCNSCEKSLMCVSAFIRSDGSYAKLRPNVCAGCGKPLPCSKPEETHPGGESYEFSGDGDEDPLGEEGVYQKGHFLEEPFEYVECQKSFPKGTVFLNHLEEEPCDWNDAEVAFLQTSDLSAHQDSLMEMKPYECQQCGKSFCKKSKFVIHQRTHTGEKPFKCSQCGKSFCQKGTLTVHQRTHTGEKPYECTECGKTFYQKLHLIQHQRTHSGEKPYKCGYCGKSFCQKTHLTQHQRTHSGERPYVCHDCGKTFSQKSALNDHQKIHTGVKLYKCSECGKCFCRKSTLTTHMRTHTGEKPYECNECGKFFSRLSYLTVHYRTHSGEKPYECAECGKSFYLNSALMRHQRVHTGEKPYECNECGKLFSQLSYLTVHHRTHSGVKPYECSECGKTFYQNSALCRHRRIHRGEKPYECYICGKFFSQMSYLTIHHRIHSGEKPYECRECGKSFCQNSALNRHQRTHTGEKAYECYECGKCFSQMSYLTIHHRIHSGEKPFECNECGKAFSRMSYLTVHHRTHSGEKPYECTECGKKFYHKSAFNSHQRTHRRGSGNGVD
UniProt Q6ZQA0: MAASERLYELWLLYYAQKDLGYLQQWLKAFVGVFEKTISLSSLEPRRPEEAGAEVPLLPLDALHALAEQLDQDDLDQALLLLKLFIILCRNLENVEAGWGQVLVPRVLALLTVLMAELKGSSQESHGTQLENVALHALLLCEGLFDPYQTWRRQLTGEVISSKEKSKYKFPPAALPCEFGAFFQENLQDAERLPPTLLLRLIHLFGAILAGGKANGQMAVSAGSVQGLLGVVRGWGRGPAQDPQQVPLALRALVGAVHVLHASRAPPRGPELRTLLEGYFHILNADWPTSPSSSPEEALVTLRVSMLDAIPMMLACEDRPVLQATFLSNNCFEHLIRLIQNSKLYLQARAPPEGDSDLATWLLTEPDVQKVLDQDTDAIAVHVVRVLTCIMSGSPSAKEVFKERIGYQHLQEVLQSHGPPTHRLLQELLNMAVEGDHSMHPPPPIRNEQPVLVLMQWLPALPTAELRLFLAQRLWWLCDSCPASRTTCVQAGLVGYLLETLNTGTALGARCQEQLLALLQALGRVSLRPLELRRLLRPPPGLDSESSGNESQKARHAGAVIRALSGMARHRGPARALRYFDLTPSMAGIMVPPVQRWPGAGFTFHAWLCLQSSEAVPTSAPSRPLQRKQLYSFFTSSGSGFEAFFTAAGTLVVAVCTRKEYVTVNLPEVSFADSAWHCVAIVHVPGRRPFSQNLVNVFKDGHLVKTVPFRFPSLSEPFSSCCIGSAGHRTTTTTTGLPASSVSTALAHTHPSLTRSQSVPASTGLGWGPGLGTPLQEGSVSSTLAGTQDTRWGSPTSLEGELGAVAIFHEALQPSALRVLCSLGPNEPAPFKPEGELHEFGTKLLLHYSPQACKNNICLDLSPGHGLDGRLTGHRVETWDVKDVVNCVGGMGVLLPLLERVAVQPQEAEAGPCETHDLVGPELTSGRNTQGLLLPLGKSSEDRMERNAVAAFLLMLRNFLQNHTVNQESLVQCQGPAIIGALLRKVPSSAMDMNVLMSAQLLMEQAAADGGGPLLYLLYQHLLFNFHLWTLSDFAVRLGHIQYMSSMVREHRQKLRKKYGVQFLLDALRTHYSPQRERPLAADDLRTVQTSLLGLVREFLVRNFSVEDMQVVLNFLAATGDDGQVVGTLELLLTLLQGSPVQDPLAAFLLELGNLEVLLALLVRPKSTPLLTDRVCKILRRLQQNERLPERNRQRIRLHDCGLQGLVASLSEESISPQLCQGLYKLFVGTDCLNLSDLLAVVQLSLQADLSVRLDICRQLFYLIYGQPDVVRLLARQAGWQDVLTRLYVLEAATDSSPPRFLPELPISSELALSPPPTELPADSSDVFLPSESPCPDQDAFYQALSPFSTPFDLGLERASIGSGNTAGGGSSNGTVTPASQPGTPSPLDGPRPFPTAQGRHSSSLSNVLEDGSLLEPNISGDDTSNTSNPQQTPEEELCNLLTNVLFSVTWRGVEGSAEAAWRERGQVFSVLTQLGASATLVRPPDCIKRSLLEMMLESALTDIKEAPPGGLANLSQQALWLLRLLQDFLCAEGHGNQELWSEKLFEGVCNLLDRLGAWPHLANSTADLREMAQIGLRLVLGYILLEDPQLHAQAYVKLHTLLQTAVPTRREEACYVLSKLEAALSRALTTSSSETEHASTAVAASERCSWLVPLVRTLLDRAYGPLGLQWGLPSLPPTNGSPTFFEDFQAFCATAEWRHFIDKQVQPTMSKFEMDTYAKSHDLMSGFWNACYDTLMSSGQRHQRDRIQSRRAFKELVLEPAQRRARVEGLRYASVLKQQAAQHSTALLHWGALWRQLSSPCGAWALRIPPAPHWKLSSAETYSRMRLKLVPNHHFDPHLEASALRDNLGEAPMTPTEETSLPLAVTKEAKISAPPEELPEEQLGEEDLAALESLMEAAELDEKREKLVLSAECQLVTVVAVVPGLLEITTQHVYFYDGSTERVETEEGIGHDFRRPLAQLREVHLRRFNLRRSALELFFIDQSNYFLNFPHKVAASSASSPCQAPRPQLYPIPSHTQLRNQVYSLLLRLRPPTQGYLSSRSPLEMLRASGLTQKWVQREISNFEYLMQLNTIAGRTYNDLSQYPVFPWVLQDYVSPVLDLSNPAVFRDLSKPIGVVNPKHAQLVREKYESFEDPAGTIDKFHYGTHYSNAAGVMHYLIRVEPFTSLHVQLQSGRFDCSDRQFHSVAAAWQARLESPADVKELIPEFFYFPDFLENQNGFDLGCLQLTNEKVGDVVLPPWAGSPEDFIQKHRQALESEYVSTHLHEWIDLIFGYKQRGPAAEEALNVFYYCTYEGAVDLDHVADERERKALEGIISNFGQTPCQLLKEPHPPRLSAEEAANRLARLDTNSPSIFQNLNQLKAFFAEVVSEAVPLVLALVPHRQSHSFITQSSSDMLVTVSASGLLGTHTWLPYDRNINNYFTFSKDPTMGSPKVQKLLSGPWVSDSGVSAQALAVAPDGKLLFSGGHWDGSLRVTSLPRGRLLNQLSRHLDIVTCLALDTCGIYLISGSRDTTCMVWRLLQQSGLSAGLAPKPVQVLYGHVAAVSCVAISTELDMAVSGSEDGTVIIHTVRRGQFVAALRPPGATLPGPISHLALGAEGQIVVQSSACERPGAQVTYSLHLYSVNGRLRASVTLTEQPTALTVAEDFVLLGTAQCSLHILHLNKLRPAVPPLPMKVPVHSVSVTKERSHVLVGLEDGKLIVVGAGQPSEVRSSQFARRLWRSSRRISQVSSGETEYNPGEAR
UniProt Q7TSS2: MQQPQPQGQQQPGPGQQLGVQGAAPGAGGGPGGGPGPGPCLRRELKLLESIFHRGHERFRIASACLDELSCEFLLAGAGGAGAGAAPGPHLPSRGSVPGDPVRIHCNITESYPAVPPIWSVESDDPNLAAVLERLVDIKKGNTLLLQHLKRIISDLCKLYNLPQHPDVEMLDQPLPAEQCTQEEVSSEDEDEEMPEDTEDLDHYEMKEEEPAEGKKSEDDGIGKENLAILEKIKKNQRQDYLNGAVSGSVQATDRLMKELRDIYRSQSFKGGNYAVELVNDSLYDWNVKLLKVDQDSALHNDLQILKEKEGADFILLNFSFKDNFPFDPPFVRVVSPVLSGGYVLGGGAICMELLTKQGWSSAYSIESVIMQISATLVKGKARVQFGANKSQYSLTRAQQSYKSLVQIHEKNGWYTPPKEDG
UniProt Q7TQH0: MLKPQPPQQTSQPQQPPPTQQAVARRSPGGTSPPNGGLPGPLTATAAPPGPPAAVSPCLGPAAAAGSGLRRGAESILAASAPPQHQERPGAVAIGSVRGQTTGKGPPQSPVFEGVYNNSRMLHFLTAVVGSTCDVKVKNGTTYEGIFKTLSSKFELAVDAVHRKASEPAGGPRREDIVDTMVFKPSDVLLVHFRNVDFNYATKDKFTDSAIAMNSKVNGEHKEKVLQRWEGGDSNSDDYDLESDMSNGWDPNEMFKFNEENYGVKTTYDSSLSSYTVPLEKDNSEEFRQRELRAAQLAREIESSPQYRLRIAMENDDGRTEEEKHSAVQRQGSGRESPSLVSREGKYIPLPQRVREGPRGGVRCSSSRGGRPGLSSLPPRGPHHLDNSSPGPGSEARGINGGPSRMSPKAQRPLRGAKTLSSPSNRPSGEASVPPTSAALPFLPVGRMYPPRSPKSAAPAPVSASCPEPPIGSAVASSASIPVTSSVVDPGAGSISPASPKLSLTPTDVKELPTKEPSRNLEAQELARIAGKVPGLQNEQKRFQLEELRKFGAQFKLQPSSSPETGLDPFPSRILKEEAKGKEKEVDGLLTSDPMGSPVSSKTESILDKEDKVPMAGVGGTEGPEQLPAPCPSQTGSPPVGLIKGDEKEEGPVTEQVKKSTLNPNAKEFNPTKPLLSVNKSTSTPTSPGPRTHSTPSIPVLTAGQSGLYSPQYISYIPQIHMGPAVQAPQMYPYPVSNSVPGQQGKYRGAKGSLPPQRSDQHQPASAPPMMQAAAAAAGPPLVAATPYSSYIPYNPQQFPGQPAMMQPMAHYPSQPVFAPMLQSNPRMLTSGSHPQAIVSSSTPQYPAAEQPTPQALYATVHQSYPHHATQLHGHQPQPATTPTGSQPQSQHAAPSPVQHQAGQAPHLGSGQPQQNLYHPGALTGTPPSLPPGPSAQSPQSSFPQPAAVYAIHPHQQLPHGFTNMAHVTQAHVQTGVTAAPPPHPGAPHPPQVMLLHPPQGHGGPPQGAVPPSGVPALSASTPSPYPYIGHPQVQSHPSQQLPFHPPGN
UniProt Q71B07: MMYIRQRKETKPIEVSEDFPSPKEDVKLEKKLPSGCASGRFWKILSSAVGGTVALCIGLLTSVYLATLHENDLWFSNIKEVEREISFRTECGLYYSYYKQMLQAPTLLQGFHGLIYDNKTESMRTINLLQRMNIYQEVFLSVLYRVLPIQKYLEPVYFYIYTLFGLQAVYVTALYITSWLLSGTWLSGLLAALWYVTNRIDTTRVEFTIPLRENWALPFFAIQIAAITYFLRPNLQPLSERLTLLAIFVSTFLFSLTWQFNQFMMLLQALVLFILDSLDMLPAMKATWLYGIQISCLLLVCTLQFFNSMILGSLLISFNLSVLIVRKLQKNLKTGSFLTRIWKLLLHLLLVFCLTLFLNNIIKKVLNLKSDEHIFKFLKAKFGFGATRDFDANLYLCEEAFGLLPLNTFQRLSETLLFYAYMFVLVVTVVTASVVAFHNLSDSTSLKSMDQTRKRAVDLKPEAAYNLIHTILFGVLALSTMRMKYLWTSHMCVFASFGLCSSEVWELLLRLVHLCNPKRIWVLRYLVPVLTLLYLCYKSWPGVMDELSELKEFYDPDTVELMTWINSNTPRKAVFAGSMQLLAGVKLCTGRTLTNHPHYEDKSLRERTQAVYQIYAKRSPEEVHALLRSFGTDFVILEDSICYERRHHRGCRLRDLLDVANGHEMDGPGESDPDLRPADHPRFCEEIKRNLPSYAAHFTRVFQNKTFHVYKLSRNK
UniProt Q80U62: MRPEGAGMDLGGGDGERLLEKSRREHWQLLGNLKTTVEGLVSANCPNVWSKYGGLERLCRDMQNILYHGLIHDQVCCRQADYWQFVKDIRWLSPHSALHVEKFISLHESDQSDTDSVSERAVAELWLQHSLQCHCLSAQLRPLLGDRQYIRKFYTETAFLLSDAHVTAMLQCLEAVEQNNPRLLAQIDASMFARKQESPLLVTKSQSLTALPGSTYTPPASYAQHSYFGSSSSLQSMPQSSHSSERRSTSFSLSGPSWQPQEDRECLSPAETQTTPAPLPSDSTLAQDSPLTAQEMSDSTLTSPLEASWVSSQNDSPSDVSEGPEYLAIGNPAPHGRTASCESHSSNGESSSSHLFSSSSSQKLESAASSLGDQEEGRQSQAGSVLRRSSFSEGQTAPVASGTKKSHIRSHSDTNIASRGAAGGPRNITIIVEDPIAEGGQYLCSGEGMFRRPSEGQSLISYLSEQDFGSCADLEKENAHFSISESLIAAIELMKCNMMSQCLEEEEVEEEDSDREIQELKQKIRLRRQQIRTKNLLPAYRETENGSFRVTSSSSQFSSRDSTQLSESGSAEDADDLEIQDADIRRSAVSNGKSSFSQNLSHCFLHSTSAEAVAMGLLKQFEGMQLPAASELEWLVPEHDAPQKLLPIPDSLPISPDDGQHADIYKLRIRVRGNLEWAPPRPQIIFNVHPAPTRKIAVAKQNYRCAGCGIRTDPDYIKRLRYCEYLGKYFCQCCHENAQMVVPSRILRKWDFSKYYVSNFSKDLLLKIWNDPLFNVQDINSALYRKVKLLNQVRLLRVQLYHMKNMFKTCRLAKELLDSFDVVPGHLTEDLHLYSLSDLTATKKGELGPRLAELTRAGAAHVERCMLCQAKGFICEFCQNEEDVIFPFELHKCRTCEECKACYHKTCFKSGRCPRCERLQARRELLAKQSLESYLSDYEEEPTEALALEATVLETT

The list shows a part of the results. Most values lie at the level of the controls, where differences are scatter.

Compound in this assay: CN[C@@H]1C[C@H]2O[C@@](C)([C@@H]1OC)n1c3ccccc3c3c4c(c5c6ccccc6n2c5c31)C(=O)NC4 [staurosporine]
Kind of assay: log2 fold change of tryptic peptide abundance, ligand vs vehicle (limited proteolysis) (log2 ratio); higher = more trypsin-susceptible (destabilized). As to conditions: ligand concentration: 20 uM; sample: mouse liver crude lysate; replicate design: treated separately.
Take “UniProt Q7TPS5 (peptide sequence: ASAMGDGNFR, peptide start residue: 868)”: the log2 fold change was -0.221. With “UniProt Q80TM9 (peptide sequence: IEYLDLSHNGLR, peptide start residue: 314)”, the log2 fold change was -0.785. The same measure for “UniProt Q80UF4 (peptide sequence: VQVVVLENER, peptide start residue: 150)”: 0.167. Regarding “UniProt Q80TE4 (peptide sequence: FSFITLGAK, peptide start residue: 829)”, the log2 fold change is -0.189.

As to “UniProt Q7TQC7 (peptide sequence: MAVDLPQDVSSK, peptide start residue: 166)”, the log2 fold change worked out at 0.28. On to “UniProt Q6ZPJ3 (peptide sequence: GLQEGYENSR, peptide start residue: 1086)”, for which the log2 fold change was 0.471. The value for “UniProt Q7TSI0 (peptide sequence: THTGEKPYECNECGK, peptide start residue: 424)” was 0.596; that for “UniProt Q7TS72 (peptide sequence: KADGTCNTNFK, peptide start residue: 554)” was 1.21; that for “UniProt Q7TMF3 (peptide sequence: KIHEWVPPSTPYK, peptide start residue: 133)” was -0.474. For the target “UniProt Q7TMX5 (peptide sequence: LAALTEALK, peptide start residue: 400)”, the log2 fold change was found to be 0.117. The value for “UniProt Q6ZPK0 (peptide sequence: VTGPGAEAVQIVAK, peptide start residue: 194)” was -0.258; that for “UniProt Q7TT23 (peptide sequence: ELEQQEYR, peptide start residue: 1163)” was -0.019; that for “UniProt Q6ZQA0 (peptide sequence: FEMDTYAK, peptide start residue: 1713)” was 0.262. In the case of “UniProt Q6ZQF7 (peptide sequence: KKPSPLQDGPSAR, peptide start residue: 648)”, the log2 fold change is -0.238. For the target “UniProt Q6ZQ03 (peptide sequence: KEVNEGIQALSNSEEER, peptide start residue: 306)”, the log2 fold change was -0.411. The same measure for “UniProt Q7M757 (peptide sequence: LQELEQEK, peptide start residue: 273)”: 0.0383. The value for “UniProt Q7TSS2 (peptide sequence: GNTLLLQHLK, peptide start residue: 141)” was 0.308; that for “UniProt Q80TF6 (peptide sequence: HSEIPYR, peptide start residue: 621)” was -0.134; that for “UniProt Q80U30 (peptide sequence: RGSSDPTVQR, peptide start residue: 846)” was 0.751. Consider “UniProt Q80UG5 (peptide sequence: LADPTGPALKR, peptide start residue: 19)”, for which the log2 fold change was determined as 0.255. Turning to “UniProt Q80TD3 (peptide sequence: LHLPADFCIMHLEDR, peptide start residue: 1038)”, the log2 fold change was found to be 0.359. The same measure for “UniProt Q7TQI7 (peptide sequence: SNSQALNSSAQQHR, peptide start residue: 37)”: -0.238. In the case of “UniProt Q6ZPL9 (peptide sequence: CPLQEMSLQR, peptide start residue: 389)”, the log2 fold change amounted to 0.205. The value for “UniProt Q7TMC8 (peptide sequence: RIPEPELWLAVGPR, peptide start residue: 754)” was -0.373; that for “UniProt Q7TQH0 (peptide sequence: EEGPVTEQVKK, peptide start residue: 649)” was -0.534. Turning to “UniProt Q7TSG2 (peptide sequence: ELNGGEAVPGVFPSKADEK, peptide start residue: 384)”, the log2 fold change was -0.169. The value for “UniProt Q80UP3 (peptide sequence: TDLQGDTPR, peptide start residue: 888)” was -0.149; that for “UniProt Q78ZA7 (peptide sequence: KYAALYQPLFDKR, peptide start residue: 94)” was -0.471.

With “UniProt Q6ZQB6 (peptide sequence: EKLIAWK, peptide start residue: 296)”, the log2 fold change was 0.32. The value for “UniProt Q71B07 (peptide sequence: EDVKLEK, peptide start residue: 24)” was -0.122. On to “UniProt Q6ZPF4 (peptide sequence: LGLEEFLQK, peptide start residue: 350)”, for which the log2 fold change is -0.304.

Regarding “UniProt Q6XVG2 (peptide sequence: HFSLMTLR, peptide start residue: 125)”, the log2 fold change was 0.21.

Consider “UniProt Q710D3 (peptide sequence: NQAEEEEMKTK, peptide start residue: 447)”, for which the log2 fold change is -0.419. The value for “UniProt Q6ZQH8 (peptide sequence: CVLHLLTYFQDERHPYR, peptide start residue: 139)” was -0.396; that for “UniProt Q6ZPF3 (peptide sequence: CELPLEK, peptide start residue: 1485)” was -0.268. The same measure for “UniProt Q80UJ7 (peptide sequence: LQMLNCCIER, peptide start residue: 516)”: 0.666; for “UniProt Q7TNC4 (peptide sequence: VHELNEEIGK, peptide start residue: 126)”: 0.0735. The value for “UniProt Q7TQD2 (peptide sequence: DCHVIDGK, peptide start residue: 81)” was -0.219; that for “UniProt Q80U62 (peptide sequence: QSQAGSVLR, peptide start residue: 379)” was -0.272. For the target “UniProt Q80UU1 (peptide sequence: GTAQGLQDAHGR, peptide start residue: 267)”, the log2 fold change is -0.244.
